Test results as given in publication PMC11985131.
No constants are given. Whether binding was seen depends on the method and setting. Binding seen in cells or lysates may run through a third protein. Some binding calls cover weakened binding; strength is not graded here.

Chains of the proteins cited; added tags and fusions are not shown.
UniProt Q61188: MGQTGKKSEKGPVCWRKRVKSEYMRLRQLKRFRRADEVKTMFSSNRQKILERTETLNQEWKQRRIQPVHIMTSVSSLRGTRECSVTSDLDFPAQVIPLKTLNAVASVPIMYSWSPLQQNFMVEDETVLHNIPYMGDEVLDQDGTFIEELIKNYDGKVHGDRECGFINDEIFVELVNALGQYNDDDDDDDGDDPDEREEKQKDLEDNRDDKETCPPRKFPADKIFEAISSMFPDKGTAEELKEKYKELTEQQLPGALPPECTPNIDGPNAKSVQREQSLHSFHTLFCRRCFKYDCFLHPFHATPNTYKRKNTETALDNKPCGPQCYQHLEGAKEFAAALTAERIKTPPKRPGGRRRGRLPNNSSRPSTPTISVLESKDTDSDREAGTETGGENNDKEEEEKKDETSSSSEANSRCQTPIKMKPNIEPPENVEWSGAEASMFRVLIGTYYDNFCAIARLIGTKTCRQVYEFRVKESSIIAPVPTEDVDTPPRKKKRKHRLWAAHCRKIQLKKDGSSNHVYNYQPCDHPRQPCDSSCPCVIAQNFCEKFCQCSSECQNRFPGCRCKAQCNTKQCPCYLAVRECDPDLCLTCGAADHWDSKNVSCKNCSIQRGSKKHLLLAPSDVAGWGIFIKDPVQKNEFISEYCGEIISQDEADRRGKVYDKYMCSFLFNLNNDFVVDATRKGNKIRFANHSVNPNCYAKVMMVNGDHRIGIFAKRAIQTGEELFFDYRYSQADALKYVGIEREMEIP
UniProt P11440: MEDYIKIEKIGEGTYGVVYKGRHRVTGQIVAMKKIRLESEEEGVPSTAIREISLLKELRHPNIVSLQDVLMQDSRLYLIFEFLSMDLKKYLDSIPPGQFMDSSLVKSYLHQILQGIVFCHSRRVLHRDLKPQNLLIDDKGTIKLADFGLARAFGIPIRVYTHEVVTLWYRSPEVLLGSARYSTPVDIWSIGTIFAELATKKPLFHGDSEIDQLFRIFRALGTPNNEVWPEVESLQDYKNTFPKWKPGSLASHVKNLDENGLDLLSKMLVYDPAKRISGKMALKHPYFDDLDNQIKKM

Molecular target: enhancer of zeste homolog 2 (EZH2) (mouse (endogenous in mouse MSCs)) (UniProt Q61188)
Experiment: co-IP; endogenous EZH2 immunoprecipitated with anti-EZH2 antibody from lysates of control and Hottip silenced MSCs; protein A + G agarose, 4 °C; western blotting for CDK1 and Akt

Question: How did the binding turn out when CDK1 (from UniProt P11440 1-297) was run?
Answer: The binding was “binds”.
